The experiment has as its system MX-1 breast xenograft, nude mice, tumor weight T/C. The experiment is described as follows: NCI In Vivo Anticancer Drug Screen. Data for tumor model Human Mammary Carcinoma MX-1 Xenograft (intrarenal inoculation) in NU/NU Swiss (nude) mice. The note with it: T/C endpoint: mean tumor weight change, higher T/C = larger tumour; for T/C: evaluated on day 11. Put shortly: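 Compound dosed to mice with transplantable tumor; vehicle group as control. Endpoint survival or tumour size, reported as T/C.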

The mark [1] stands for this setting: dose: 100.0 mg/kg/injection, schedule: Q01DX010 (sc), vehicle: saline.
Where [2] appears, read: dose: 200.0 mg/kg/injection, schedule: Q01DX010 (sc), vehicle: saline.
Where [3] appears, read: dose: 400.0 mg/kg/injection, schedule: Q04DX003 (sc), vehicle: saline with Tween-80.
The mark [4] stands for this setting: dose: 300.0 mg/kg/injection, schedule: Q04DX003 (sc), vehicle: suspension in saline.

The list does not hold the whole screen: it gathers tests that were run many times, whatever their T/C, doses with no T/C, and many T/C values between a quarter and a half above the control. Further doses and runs are listed elsewhere. T/C: endpoint of the treated group in % of that of the vehicle group. Schedule codes are those of the source, taken here to give the interval after Q, in days (D) or hours (H), and the number of doses after X. Some T/C values are negative: the treated tumours shrank. Some T/C values carry the count of animals alive at the toxicity check (mostly the fifth day); without a count, all were alive then. Some entries hold several experiments; the results are listed from low to high. Counts like (3×) stand for listed records that agree. Some doses have a count of surviving animals in place of a T/C: the source files T/C as zero there, which appears to mark a toxic dose or a test without result, not a measured value. Counts of survivors are from the toxicity check (mostly the fifth day) where no day follows; animals may have died later. *1 amine or outer side, *2 acyl side, *3 side chain or, on linkers, in order; H or OH if unused. Where a SMILES comes first, the peptide text is derived from it. Bridges are numbered along the chain shown (N, C = ends). Roman numbers before positions name the chains, in order. [ ]: non-standard residue; d: D form. Actinocin(1to9) = Cc1c2oc3c(C)ccc(C(=O)[*:2])c3nc-2c(C(=O)[*:1])c(N)c1=O; NMeV = CN[CH](C(=O)O)C(C)C; Aze = O=C(O)[CH]1CCN1; Sar = CNCC(=O)O

For `CCCCCNc1ncnc2c(C)[nH]nc12`, the survivor count reads like this: (dose: 300.0 mg/kg/injection, schedule: Q04DX003 (ip), vehicle: Klucel (hydroxypropylcellulose) (HPC)) 2 of 6 on day 11; (dose: 600.0 mg/kg/injection, schedule: Q04DX003 (ip), vehicle: Klucel (hydroxypropylcellulose) (HPC)) 0 of 6 on day 11.
Take `CC[C@@H](C)[C@@H]1NC(=O)C(NC(=O)C(CC(C)C)N(C)C(=O)C2CCCN2C(=O)C(C)O)C(C)OC(=O)C(Cc2ccc(OC)cc2)N(C)C(=O)C2CCCN2C(=O)C(CC(C)C)NC(=O)C(C)C(=O)C(C(C)C)OC(=O)C[C@H]1O` (some centres undefined): the survivor count (dose: 2400.0 micrograms/kg/injection, schedule: Q04DX003 (sc), vehicle: distilled water + alcohol) is recorded as 3 of 6 on day 11.
For the compound `OCCCN1CCCCC1CO` (centres undefined), for the setting “dose: 2400.0 mg/kg/injection, schedule: Q04DX003 (sc), vehicle: saline”, the survivor count was 1 of 6 on day 11.
Turning to `CCC(C(=O)O)C(=O)O.[NH-]CC1CCCC[N-]1.[Pt+2]`, the survivor count is, setting by setting: (dose: 600.0 mg/kg/injection, schedule: Q04DX003 (sc), vehicle: suspension in saline) 0 of 6 on day 11; (dose: 800.0 mg/kg/injection, schedule: Q04DX003 (sc), vehicle: saline) 0 of 6 on day 11.
Consider `CC1=C(/C=C/C(C)=C/C=C/C(C)=C/C=O)C(C)(C)CCC1`, for which, for the setting “dose: 600.0 mg/kg/injection, schedule: Q04DX003 (sc), vehicle: saline with Tween-80”, the survivor count is 3 of 6 on day 11.
With `CNC(=O)ON(C(C)=O)C(=O)NC`, the T/C (dose: 12.5 mg/kg/injection, schedule: Q01DX010 (sc), vehicle: saline) is 142 % of control; the T/C (dose: 25.0 mg/kg/injection, schedule: Q01DX010 (sc), vehicle: saline) is listed as 9, 72, 81, 89, 106 % of control; the T/C (dose: 50.0 mg/kg/injection, schedule: Q01DX010 (sc), vehicle: saline) was -38, 2, 26, 31, 90 % of control [2 of 2 alive on day 11]; the T/C (dose: 50.0 mg/kg/injection, schedule: Q04DX003 (sc), vehicle: saline) was 139 % of control; the T/C under setting [1] was -39, 1 (2×), 4 % of control; the T/C under setting [2] is 2 % of control [5 of 6 alive on day 11]. Besides, the survivor count under setting [1] is reported as 1 of 3 on day 11; the survivor count (dose: 150.0 mg/kg/injection, schedule: Q01DX010 (sc), vehicle: water) was 0 of 3 on day 11; the survivor count under setting [2] is recorded as 0 of 6 on day 11, 0 of 8 on day 11, 1 of 3 on day 11; the survivor count (dose: 200.0 mg/kg/injection, schedule: Q01DX010 (sc), vehicle: water) is 0 of 3 on day 11; the survivor count (dose: 200.0 mg/kg/injection, schedule: Q04DX003 (sc), vehicle: saline) was 2 of 6 on day 11.
Take `Nc1ncn(C2CC(O)C(CO)O2)c(=O)n1` (centres undefined): the survivor count reads like this: (dose: 0.4 mg/kg/injection, schedule: Q01DX010 (sc), vehicle: saline) 0 of 3 on day 11; (dose: 0.8 mg/kg/injection, schedule: Q01DX010 (sc), vehicle: saline) 0 of 3 on day 11; (dose: 1.6 mg/kg/injection, schedule: Q01DX010 (sc), vehicle: saline) 0 of 3 on day 11.
With `CC[C@](O)(C(=O)O)c1cc2n(c(=O)c1CO)Cc1cc3ccccc3nc1-2`, the survivor count (dose: 128.0 mg/kg/injection, schedule: Q04DX003 (sc), vehicle: saline) is listed as 2 of 6 on day 11.
Take `Nc1ncc(C2OC(CO)C(O)C2O)c(=O)[nH]1` (centres undefined): the survivor count (dose: 1200.0 mg/kg/injection, schedule: Q04DX003 (ip), vehicle: saline) is listed as 0 of 6 on day 11.
Take `O=C([O][Bi]([c]1ccccc1)[c]1ccccc1)c1ccccc1`: the survivor count (dose: 200.0 mg/kg/injection, schedule: Q04DX003 (ip), vehicle: Klucel (hydroxypropylcellulose) (HPC)) is 2 of 6 on day 11.
In the case of `CCOC(C)C(/C=N/NC(N)=S)=NNC(N)=S` (centres undefined), the T/C (dose: 400.0 mg/kg/injection, schedule: Q01DX010 (sc), vehicle: saline with Tween-80) was 141 % of control.
For `CCN(CC)CCOC(=O)Cc1cccc2c(=O)cc(-c3ccccc3)oc12`, where the note is “dose: 50.0 mg/kg/injection, schedule: Q04DX003 (sc), vehicle: saline with Tween-80”, the T/C was 148 % of control. The survivor count under setting [3] is 2 of 6 on day 11.
For the compound `C(=N/NC1=NCCN1)/c1c2ccccc2c(/C=N\NC2=NCCN2)c2ccccc12`, the survivor count under setting [4] is 3 of 6 on day 11.
Turning to `C/C(=N\NC(=S)N1CC2CCC(CC2)C1)c1cccc(C)n1`, the T/C (dose: 12.5 mg/kg/injection, schedule: Q04DX003 (ip), vehicle: saline with Tween-80) was 126 % of control and the T/C (dose: 25.0 mg/kg/injection, schedule: Q04DX003 (ip), vehicle: saline with Tween-80) was 135 % of control. Also, under “dose: 100.0 mg/kg/injection, schedule: Q04DX003 (ip), vehicle: saline with Tween-80”, the survivor count is reported as 3 of 6 on day 11.
Consider `CC[C@@]1(O)C[C@H](OC2CC(N(C)C)C(OC3CC(O)C(OC4CCC(=O)C(C)O4)C(C)O3)C(C)O2)c2c(cc3c(c2O)C(=O)c2c(O)ccc(O)c2C3=O)[C@H]1C(=O)OC` (some centres undefined), for which the survivor count is recorded as 1 of 6 on day 11 (dose: 12.0 mg/kg/injection, schedule: Q04DX003 (sc), vehicle: water) and 0 of 6 on day 11 (dose: 24.0 mg/kg/injection, schedule: Q04DX003 (sc), vehicle: water).
With `c1ccc2c(NCCCCCCNc3c4ccccc4nc4ccccc34)c3ccccc3nc2c1`, the survivor count is on record as 1 of 3 on day 11 (dose: 40.0 mg/kg/injection, schedule: Q01DX010 (sc), vehicle: Klucel (hydroxypropylcellulose) (HPC)) and 0 of 3 on day 11 (dose: 80.0 mg/kg/injection, schedule: Q01DX010 (sc), vehicle: Klucel (hydroxypropylcellulose) (HPC)).
Regarding `Cc1c2oc3c(C)ccc(C(=O)NC4C(=O)NC(C(C)C)C(=O)N5CCCC5C(=O)N(C)CC(=O)N(C)C(C(C)C)C(=O)OC4C)c3nc-2c(C(=O)NC2C(=O)NC(C(C)C)C(=O)N3CCC3C(=O)N(C)CC(=O)N(C)C(C(C)C)C(=O)OC2C)c(N)c1=O` (centres undefined) (I: TV[Aze][Sar][NMeV] / II: TVP[Sar][NMeV]; ester I:1-I:C, II:1-II:C; linker I:N-II:N via Actinocin(1to9); configuration not given here), the survivor count (dose: 2.0 mg/kg/injection, schedule: Q04DX003 (sc), vehicle: saline + alcohol) is on record as 0 of 6 on day 11.
Regarding `CCc1ccccc1N1CCN(C(=O)c2cc(OC)c(OC)c(OC)c2)CC1`, the survivor count (dose: 800.0 mg/kg/injection, schedule: Q04DX003 (sc), vehicle: Klucel (hydroxypropylcellulose) (HPC)) is given as 3 of 6 on day 11.
On to `C=C(C)C(=NC(C)(C)C)Nc1ccccc1`, for which the survivor count was 0 of 6 on day 11 (dose: 200.0 mg/kg/injection, schedule: Q04DX003 (sc), vehicle: saline with Tween-80); 0 of 6 on day 11 under setting [3]; 0 of 6 on day 11 (dose: 800.0 mg/kg/injection, schedule: Q04DX003 (sc), vehicle: saline with Tween-80).
As for `CN1C(=O)CC2(CCN(CCCC(=O)c3ccc(F)cc3)CC2)C1=O`, where the note is “dose: 75.0 mg/kg/injection, schedule: Q04DX003 (sc), vehicle: suspension in saline”, the T/C was 130 % of control [5 of 6 alive on day 11]. In addition, the survivor count under setting [4] is listed as 3 of 6 on day 11.
As to `CN(CCN(C)C(=O)CCOS(C)(=O)=O)C(=O)CCOS(C)(=O)=O`, the survivor count under setting [3] is reported as 0 of 6 on day 11.
As for `NC(=S)c1cn(C2OC(CO)C(O)C2O)c2ncnc(N)c12` (centres undefined), the survivor count reads like this: (dose: 25.0 mg/kg/injection, schedule: Q04DX003 (sc), vehicle: suspension in saline) 0 of 6 on day 11; (dose: 50.0 mg/kg/injection, schedule: Q04DX003 (sc), vehicle: suspension in saline) 0 of 6 on day 11.
For the compound `C=C(C)[C@H]1Cc2c(ccc3c2O[C@@H]2COc4cc(OC)c(OC)cc4[C@@H]2C3=O)O1`, where the note is “dose: 2.0 mg/kg/injection, schedule: Q01DX010 (sc), vehicle: saline with Tween-80”, the T/C is 143 % of control. In addition, the survivor count (dose: 16.0 mg/kg/injection, schedule: Q01DX010 (sc), vehicle: saline with Tween-80) is reported as 1 of 3 on day 11.
For `C[n+]1c(/C=C\C=C\N2CCCCC2)sc2ccccc21`, the survivor count (dose: 3.0 mg/kg/injection, schedule: Q04DX003 (sc), vehicle: Klucel (hydroxypropylcellulose) (HPC)) was 3 of 6 on day 11 and the survivor count (dose: 6.0 mg/kg/injection, schedule: Q04DX003 (sc), vehicle: Klucel (hydroxypropylcellulose) (HPC)) was 0 of 6 on day 11.
